Experimental data as given in paper doi:10.1101/795211 (bioRxiv, 2019).

Target: His-dihydrofolate reductase
Experiment: BLI

B1: YoeB toxin from Agrobacterium tumefaciens (AtYoeB), expressed alone, after removal of the GST-His affinity tag (natural protein)
chain: MKLVWTLSSWDDYEFWQRTDARMVEKINDLIRNAKRTPFAGLGKPEPLKGDMAGYWSRRITAEHRFVYRVSGSGSEQRLEVIQCRFHYQ
For B1, the binding was “no binding”.

No constants are given. Whether binding was seen depends on the method and setting. Where a sequence is shown, tags or fusion partners need not be part of it.
